Biological target: αvβ3 integrin (Homo sapiens, UniProt P05106+P06756)
Assay: Assay for the inhibition of αvβ3 integrin binding (vitronectin as ligand)
Set-up: purchased Chemicon International, Inc., USA
Settings: IC50 (nM) αvβ3 integrin binding, inhibition of specific binding of biotinylated human vitronectin to immobilized αvβ3 integrin
Description: Experiment 1: Assay for the Inhibition of αvβ3 integrin binding
This experiment was carried out based on the method described in […].
Purified human αvβ3 integrin (Chemicon International, Inc., USA) was adjusted to a concentration of 1 μg/ml with TBS^++ [20 mM Tris-HCl (pH 7.4), 150 mM NaCl, 1 mM CaCl2, 1 mM MgCl2], and the diluted solution was added to plates (Labsystems, Finland) at 50 μl/well. The plate was left at 4° C. overnight for immobilization of the αvβ3 integrin. All subsequent steps were done at 25° C., and the procedure for each well was described hereafter.
The solution was discarded, and then 200 μl of TBS^++ containing 1% BSA (Wako Pure Chemical Industries, Ltd., Japan) was added to the well and left for one hour for blocking. The well was washed with a wash solution (TBS^++ containing 0.01% Tween 20) 4 times, and 50 μl of a reaction solution (TBS^++ containing 0.1% BSA and 0.01% Tween 20) was added to the well. […]
The absorbance at 450 nm was measured with a plate reader (Molecular Devices, USA) to obtain a total binding. […] A specific binding was calculated by subtracting the nonspecific binding from the total binding.

Chains of the proteins cited; added tags and fusions are not shown. Residues count along the entry.
UniProt P05106, 27-788: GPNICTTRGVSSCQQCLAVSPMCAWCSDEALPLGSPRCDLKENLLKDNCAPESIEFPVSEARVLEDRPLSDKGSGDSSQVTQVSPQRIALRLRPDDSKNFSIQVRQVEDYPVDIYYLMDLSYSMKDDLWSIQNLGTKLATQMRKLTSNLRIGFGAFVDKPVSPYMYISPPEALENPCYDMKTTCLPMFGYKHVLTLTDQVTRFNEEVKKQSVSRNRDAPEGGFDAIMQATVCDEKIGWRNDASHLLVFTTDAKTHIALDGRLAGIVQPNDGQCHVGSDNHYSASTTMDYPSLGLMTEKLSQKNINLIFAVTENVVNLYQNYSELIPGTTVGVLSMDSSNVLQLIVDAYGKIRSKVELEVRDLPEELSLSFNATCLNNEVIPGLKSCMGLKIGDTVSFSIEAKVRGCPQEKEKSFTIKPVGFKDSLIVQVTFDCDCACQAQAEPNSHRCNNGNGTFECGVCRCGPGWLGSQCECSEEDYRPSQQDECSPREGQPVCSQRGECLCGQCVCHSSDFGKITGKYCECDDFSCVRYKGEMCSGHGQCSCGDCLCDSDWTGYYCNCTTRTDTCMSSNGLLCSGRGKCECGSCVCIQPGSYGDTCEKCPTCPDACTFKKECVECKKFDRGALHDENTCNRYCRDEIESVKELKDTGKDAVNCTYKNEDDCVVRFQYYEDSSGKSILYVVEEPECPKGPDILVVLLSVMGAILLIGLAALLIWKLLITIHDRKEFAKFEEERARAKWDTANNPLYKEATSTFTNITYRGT
UniProt P06756, 891-1048 partner limits assumed: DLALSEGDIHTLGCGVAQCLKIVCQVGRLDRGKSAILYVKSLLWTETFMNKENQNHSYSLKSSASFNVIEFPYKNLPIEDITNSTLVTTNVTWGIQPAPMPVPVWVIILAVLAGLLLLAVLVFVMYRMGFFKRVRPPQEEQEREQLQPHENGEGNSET
UniProt P06756, 31-889 limits assumed: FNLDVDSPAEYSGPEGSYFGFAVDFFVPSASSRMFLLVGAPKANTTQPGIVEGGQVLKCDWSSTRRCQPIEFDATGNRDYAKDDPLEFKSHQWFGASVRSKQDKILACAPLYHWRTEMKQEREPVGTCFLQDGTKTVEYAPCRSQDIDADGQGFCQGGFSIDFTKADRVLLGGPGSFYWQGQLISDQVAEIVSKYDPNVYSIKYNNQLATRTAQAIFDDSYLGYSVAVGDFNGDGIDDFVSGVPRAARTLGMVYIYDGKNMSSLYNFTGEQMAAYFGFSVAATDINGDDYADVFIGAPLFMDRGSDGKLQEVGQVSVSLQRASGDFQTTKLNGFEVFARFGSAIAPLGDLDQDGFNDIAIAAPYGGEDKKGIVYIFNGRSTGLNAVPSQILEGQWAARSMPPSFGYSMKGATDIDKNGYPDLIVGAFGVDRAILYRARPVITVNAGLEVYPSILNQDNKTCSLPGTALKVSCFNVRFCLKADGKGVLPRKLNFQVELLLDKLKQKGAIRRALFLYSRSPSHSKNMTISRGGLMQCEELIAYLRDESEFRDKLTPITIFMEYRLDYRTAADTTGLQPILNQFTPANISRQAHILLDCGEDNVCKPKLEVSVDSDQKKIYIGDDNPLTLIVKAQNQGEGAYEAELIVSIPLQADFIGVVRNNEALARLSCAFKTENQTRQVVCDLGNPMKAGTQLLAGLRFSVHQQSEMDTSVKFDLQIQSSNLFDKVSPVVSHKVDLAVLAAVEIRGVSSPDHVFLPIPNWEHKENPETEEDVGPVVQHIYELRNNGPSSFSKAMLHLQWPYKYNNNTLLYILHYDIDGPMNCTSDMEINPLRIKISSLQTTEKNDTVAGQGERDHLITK

IC50: 3 nM
SMILES: C[C@H](NC(=O)[C@@H]1CSSC(C)(C)[C@H](NC(=O)CN)C(=O)NCC(=O)N[C@@H](CCCNC(=N)N)C(=O)NCC(=O)N[C@@H](CC(=O)O)C(=O)N[C@@H](CO)C(=O)N2CCC[C@H]2C(=O)N1)C(=O)O [RGD peptide, reference compound]

From US7176199B2, “Aryl-substituted alicyclic compound and medical composition comprising the same” (Dainippon Pharmaceutical Co., Ltd., priority 2001, dated 2007)
